Assay: general procedure: solution-phase peptide synthesis; dicyclohexylcarbodiimide / hydroxybenzotriazole
Conditions: HCl

Row | Substance | step yield (late stage modification step) [%] | step yield (coupling step) [%]
1 | HCl, Ser(OBzl)--Arg(NO2) --Leu--Phe--OMe | 81 | –
2 | BOC--Ser (OBzl)--Arg(NO2) --leu--Phe--OMe | – | 92
3 | HCl, Leu--Ser--Arg--Leu--Phe--Asp--Asn--Ala | 92 | –
4 | BOC--Leu--Ser (OBzl)--Arg(NO2)--Leu--Phe--OMe | – | 68
5 | BOC--Leu--Ser(OBzl)--Arg(NO2)--Leu--Phe--OX | 90 | –

— patent US4107158A (Choay S.A., priority 1974, dated 1978)
